# Reference: PubChem BioAssay AID504804 (Drosophila RNAi Screening Center, 2011)
# Assay: 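dsRNAs that improve Kc cell survival under doxorubicin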 (primary screen)
# Cell system: Drosophila Kc cells
# Knock-down reagent: long dsRNA against Drosophila genes, 0.5 µg dsRNA per well
# Timing: 96 h (48 h knock-down, then 48 h drug)
# Treatment: doxorubicin 5 µg/ml for 48 h, added 48 h after dsRNA
# Measured: 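Luminescent ATP counts per replicate, not normalised, reflecting viable cells after 48 h dsRNA knock-down followed by 48 h of 5 µg/ml doxorubicin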
# Scale: raw ATP luminescence: higher = more viable cells, protection from doxorubicin
# Hit rule: 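Active when both duplicate wells lie at least 2 SD above the plate mean and protection is confirmed by rescreening and independent dsRNAs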
# In all, the deposit lists about 19,000 reagents; shown is an unselected part of those with a known target gene and a result. Over the whole deposit, 47 (0.25%) were called active. 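Signals are raw, not normalised; exact z-scores behind calls not deposited; actives needed confirmation, so some wells reaching 2 SD are inactive.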 Unmarked entries are inactive. A plus sign joins genes that one reagent is predicted to hit.
gene,DRSC id,SD above plate mean,"raw ATP luminescence, replicate 1","raw ATP luminescence, replicate 2"
CG30058 + CG34235 + CG34312,DRSC05401,,79867,1.06e5
CG8745,DRSC11033,,19977,21560
CG8745,DRSC11034,,70293,65280
CycH (Cyclin H),DRSC11861,,59833,53737
Mal-B2 (Maltase B2),DRSC02417,,1.84e5,1.92e5
l(1)G0196 (lethal (1) G0196),DRSC20591,,2.39e5,2.45e5
l(1)G0196 (lethal (1) G0196),DRSC20629,,3.75e5,2.92e5
CG32428,DRSC11697,,23737,16310
CG32428,DRSC11768,,79730,87763
CG9676,DRSC20204,,3.77e5,3.36e5
Capr (Caprin),DRSC10346,,48887,38460
CG34338,DRSC17535,,1.56e5,1.68e5
CG5026,DRSC10470,,41493,41607
"betaNACtes1 (Nascent-associated complex beta-subunit-like, testis 1)",DRSC19534,,3.17e5,2.65e5
CG6153,DRSC02935,,88597,52183
CG13285,DRSC09960,,65507,64047
CG33140,DRSC06030,,72900,55037
alpha-Est4aPsi (pseudo),DRSC12473,,74943,59487
CG11127,DRSC06043,,68737,33653
nenya,DRSC13838,,1.80e5,2.15e5
"Lamtor5 (Late endosomal/lysosomal adaptor, MAPK and MTOR activator 5)",DRSC18491,,51350,46230
RpS17 (Ribosomal protein S17),DRSC11271,,62543,58097
Tom20 (Translocase of outer membrane 20),DRSC10899,,26597,24427
psidin (phagocyte signaling impaired),DRSC15660,,38150,42030
CenB1A (Centaurin beta 1A),DRSC16923,,69400,66060
CG4988,DRSC02800,,42160,75670
CG14313,DRSC14792,,61400,91770
ohgt (ohgata),DRSC15521,,48843,65947
esn (espinas),DRSC05039,,88567,67577
esn (espinas),DRSC07612,,46293,82647
mTerf5 (mitochondrial transcription termination factor 5),DRSC16209,,43807,39187
ATbp ((A+T)-stretch binding protein),DRSC20906,,2.47e5,2.00e5
sv (shaven),DRSC17221,,68520,81770
CG8507,DRSC16435,,56730,51813
Lsd-1 (Lipid storage droplet-1),DRSC14236,,35267,34987
lost,DRSC12002,,69913,70823
lost,DRSC12234,,17447,21250
CG40551 (retired record),DRSC21229,,1.91e5,2.64e5
CG7102,DRSC02647,,1.07e5,64490
CG7102,DRSC03007,,45357,77623
CG32733 (retired record),DRSC17481,,1.29e5,1.50e5
CG3091,DRSC18274,,34840,38920
Aef1 (Adult enhancer factor 1),DRSC11605,,62870,67800

The list goes on; the last 2 above are carried over.
gene,DRSC id,SD above plate mean,"raw ATP luminescence, replicate 1","raw ATP luminescence, replicate 2"
CG3091,DRSC18274,,34840,38920
Aef1 (Adult enhancer factor 1),DRSC11605,,62870,67800
CG10352,DRSC19353,,3.29e5,3.22e5
Cyp12e1 (Cytochrome P450 12e1),DRSC16622,,59103,62153
CG31141,DRSC13646,,1.58e5,1.82e5
sim (single-minded),DRSC17054,,80670,75450
tilB (touch insensitive larva B),DRSC20634,,2.75e5,2.95e5
Rac2,DRSC11262,at least 2 SD above plate mean,1.04e5,1.07e5
CG2608,DRSC02709,,79030,55263
PIG-B (Phosphatidylinositol glycan anchor biosynthesis class B),DRSC08216,,44827,31683
dmrt99B (doublesex-Mab related 99B),DRSC15045,,14710,12780
Spn77Ba (Serpin 77Ba),DRSC10693,,34797,33067
CG15236,DRSC04970,,48527,1.15e5
CG43386,DRSC17980,,3.11e5,3.02e5
Jhbp7 (Juvenile hormone binding protein 7),DRSC14408,,67020,85040
l(3)76BDm (lethal (3) 76BDm),DRSC11047,,22600,23707
CG14683,DRSC17035,,34903,35227
CG15544,DRSC15082,,67190,36430
CG33255 (retired record) + hpRNA:CR32205 + hpRNA:CR32207,DRSC09617,,70353,70873
Kal1 (Kallmann syndrome 1),DRSC15983,,55023,51307
HisRS (Histidyl-tRNA synthetase),DRSC19986,,2.60e5,2.64e5
Msh6,DRSC10759,,90313,59567
CG12432 (retired record),DRSC19455,,2.16e5,2.56e5
Nak (Numb-associated kinase),DRSC03379,,1.35e5,83810
CG17549,DRSC02625,,1.13e5,73803
COX7C (Cytochrome c oxidase subunit 7C),DRSC06831,,64637,65600
PGRP-LB (Peptidoglycan recognition protein LB),DRSC14926,,48003,34203
e(y)2b (enhancer of yellow 2b),DRSC12556,,47930,66480
HSPBAP1 (HSPB1 associated protein 1),DRSC14567,,39290,44190
Cht12 (Chitinase 12),DRSC03844,,81153,73093
lin-52,DRSC18106,,39340,39370
Cyp304a1 (Cytochrome P450 304a1),DRSC16623,,98550,81650
coro (Coronin),DRSC05007,,63963,62350
sn (singed),DRSC18834,,27860,42300
CG32191,DRSC10522,,72317,55833
alpha-Catr (alpha-catenin related),DRSC04669,,45497,58113
svr (silver),DRSC17293,,1.73e5,1.87e5
svr (silver),DRSC18841,,59840,43510
RhoBTB (Rho-related BTB domain containing),DRSC11877,,22343,19090
Or10a (Odorant receptor 10a),DRSC20264,,2.92e5,2.77e5
CG13720,DRSC08329,,70217,79887
rpk (ripped pocket),DRSC12386,,29013,25757
CG16964,DRSC02546,,44263,76257
